Paper PMC5352113
No constants are given. Whether binding was seen depends on the method and setting. Binding seen in cells or lysates may run through a third protein. These calls come from enrichment with a bait or labelling near it, and not all partners need be listed.

By UniProt entry, the sequences of proteins in these tests, tags left out. Residues count along the entry.
UniProt P30530, residues 26-894: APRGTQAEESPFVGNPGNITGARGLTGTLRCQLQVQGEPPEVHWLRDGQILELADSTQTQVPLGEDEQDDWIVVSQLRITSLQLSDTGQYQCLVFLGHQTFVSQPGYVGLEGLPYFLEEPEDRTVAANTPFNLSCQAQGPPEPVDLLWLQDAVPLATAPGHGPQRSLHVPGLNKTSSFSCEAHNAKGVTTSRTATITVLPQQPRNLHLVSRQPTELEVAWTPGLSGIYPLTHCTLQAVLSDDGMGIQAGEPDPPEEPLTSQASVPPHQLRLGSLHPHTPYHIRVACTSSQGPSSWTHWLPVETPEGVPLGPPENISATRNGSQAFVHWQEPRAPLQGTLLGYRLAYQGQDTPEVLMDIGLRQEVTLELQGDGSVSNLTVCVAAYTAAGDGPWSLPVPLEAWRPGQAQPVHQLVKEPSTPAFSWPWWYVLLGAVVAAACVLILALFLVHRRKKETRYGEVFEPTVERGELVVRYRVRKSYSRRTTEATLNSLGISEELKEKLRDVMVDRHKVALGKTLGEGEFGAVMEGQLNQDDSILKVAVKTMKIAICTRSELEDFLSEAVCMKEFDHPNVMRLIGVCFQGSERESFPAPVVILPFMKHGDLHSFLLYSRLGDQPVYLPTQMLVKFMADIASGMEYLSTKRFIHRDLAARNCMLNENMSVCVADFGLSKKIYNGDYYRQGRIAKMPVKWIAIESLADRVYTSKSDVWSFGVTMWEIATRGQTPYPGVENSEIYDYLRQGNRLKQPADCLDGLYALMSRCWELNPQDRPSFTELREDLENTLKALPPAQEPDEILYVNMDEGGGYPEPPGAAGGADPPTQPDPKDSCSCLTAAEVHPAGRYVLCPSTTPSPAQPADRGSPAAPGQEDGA
UniProt P42224: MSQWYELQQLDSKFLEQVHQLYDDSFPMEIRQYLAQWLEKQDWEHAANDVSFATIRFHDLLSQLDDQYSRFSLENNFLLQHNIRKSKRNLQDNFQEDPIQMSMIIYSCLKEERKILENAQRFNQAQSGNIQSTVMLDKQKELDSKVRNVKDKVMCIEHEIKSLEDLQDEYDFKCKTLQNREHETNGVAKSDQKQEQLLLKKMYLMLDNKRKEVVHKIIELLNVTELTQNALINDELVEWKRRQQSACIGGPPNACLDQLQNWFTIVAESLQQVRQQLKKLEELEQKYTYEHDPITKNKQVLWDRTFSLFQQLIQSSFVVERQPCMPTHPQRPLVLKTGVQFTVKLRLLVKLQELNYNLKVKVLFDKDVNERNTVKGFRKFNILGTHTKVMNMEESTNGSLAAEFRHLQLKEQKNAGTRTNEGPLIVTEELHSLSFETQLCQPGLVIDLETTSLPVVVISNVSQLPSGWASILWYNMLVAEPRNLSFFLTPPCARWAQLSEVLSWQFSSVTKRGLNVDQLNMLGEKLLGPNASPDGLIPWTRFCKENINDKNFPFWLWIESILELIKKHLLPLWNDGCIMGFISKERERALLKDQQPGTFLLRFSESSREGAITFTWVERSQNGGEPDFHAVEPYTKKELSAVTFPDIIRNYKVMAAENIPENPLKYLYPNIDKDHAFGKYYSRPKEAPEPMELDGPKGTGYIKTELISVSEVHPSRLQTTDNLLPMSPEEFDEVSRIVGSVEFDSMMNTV
UniProt P29317, residues 24-976: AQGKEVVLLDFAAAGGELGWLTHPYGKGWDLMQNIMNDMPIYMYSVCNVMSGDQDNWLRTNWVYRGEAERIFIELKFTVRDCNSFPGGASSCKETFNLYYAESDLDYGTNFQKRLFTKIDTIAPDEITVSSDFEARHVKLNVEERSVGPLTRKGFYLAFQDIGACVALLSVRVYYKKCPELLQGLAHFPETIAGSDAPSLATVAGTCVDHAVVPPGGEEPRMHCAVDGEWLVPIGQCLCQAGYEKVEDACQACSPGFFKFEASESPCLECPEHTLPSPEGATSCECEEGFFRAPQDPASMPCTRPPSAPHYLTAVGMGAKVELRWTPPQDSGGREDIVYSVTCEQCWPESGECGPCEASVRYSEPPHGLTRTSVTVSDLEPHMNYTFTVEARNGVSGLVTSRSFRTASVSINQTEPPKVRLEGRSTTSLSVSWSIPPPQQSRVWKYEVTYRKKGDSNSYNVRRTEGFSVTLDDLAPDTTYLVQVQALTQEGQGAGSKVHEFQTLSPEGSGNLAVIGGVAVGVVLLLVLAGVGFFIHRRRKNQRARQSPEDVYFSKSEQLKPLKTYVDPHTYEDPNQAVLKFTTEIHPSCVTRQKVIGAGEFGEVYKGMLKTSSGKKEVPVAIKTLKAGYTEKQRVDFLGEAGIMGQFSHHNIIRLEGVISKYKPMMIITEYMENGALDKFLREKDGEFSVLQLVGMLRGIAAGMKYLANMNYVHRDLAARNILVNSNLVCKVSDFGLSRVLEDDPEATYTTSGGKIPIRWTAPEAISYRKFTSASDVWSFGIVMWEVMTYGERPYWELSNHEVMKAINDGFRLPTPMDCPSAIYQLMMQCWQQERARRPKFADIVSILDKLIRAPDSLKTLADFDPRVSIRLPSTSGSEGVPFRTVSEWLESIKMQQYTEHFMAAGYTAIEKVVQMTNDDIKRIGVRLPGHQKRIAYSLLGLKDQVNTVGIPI
UniProt P40763: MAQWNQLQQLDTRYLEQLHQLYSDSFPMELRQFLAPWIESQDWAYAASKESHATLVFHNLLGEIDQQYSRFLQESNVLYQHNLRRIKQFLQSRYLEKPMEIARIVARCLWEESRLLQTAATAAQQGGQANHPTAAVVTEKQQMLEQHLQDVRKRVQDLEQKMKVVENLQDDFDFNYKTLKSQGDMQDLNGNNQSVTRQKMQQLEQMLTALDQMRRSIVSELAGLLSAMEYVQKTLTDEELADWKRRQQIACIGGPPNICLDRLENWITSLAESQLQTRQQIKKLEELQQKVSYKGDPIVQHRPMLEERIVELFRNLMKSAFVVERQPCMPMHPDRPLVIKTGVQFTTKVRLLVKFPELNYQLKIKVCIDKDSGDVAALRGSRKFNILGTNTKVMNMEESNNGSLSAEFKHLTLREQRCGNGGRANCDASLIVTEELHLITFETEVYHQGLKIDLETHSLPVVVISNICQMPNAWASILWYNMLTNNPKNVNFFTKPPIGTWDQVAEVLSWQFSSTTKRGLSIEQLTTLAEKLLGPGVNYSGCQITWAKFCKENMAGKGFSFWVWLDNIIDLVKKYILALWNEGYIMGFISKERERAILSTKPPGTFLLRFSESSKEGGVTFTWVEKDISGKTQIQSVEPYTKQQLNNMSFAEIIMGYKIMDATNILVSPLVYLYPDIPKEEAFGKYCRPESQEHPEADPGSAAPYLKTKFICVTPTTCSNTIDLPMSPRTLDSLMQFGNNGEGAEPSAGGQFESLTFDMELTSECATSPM

Target: T1, vascular endothelial (VE)-cadherin (human (endogenous in BLM, A375, MDA-MB-468, SKBR3)) (UniProt P33151)
T1 sequence: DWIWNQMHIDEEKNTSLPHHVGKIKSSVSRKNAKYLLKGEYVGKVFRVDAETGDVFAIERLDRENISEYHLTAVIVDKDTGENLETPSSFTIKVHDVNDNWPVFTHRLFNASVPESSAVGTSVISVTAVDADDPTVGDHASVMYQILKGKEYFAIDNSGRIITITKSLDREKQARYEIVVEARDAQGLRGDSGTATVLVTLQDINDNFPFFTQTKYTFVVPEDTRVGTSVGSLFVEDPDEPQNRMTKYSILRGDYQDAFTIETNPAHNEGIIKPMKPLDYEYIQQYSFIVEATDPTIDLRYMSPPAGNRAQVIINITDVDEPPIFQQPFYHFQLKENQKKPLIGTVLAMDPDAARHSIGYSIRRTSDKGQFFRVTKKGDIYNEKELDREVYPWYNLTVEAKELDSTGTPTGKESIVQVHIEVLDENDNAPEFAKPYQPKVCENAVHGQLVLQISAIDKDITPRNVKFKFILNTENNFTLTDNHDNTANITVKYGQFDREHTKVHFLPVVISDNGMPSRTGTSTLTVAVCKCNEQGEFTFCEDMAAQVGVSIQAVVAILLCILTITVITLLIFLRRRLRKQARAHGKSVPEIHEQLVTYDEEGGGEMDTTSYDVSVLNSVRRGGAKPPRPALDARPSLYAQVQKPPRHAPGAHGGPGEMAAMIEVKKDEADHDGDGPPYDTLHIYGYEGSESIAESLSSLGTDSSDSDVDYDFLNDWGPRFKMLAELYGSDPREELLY
Test: affinity purification with mass spectrometry; 10 mg of BLM or MDA-MB-468 cell lysate immunoprecipitated with anti-VE-cadherin or control antibodies; SDS-PAGE, three slices, trypsin, nanoLC-MS/MS; contaminants filtered with CRAPome

AKT (human (endogenous in BLM, MDA-MB-468)) (enzyme)
binding: binds

AXL (from UniProt P30530 26-894) (receptor)
binding: binds

Ras
binding: binds

STAT1 (from UniProt P42224 1-750)
binding: binds

EPHA2 (from UniProt P29317 24-976) (receptor)
binding: binds

STAT3 (from UniProt P40763 1-770)
binding: binds

JNK (human (endogenous in BLM, MDA-MB-468)) (enzyme)
binding: binds
